Reference: PubChem BioAssay AID1347426 (Functional Genomics Laboratory (NCATS/FGL), 2020)
Screen size: about 31,000 sequences; about 1,400 (4.5%) were called active.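 How the source made its calls: active means median seed-adjusted z-score above 1 or below -1; inactive means the rest.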 This is one part of the list.

Assay: Novel Modifiers of Survival Motor Neuron (SMN) Protein: Gene Identification via Genome-wide siRNA Screen;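 further: luminescence tracks full-length SMN protein made from the SMN2 reporter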
Details: HEK293T SMN2-luciferase reporter, siRNA knockdown, 72 h; actives lie on both sides
In short: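 Each of three siRNAs per gene is reverse-transfected (1 pmol) into reporter HEK293T cells whose luciferase output tracks SMN protein level. After 72 h culture, ONE-Glo luminescence is control-normalized, log10-transformed and MAD-standardized; Common Seed Analysis deprioritizes seed-driven hits.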

**Q.** Which median seed-adjusted z-score does the source give for CAGUAUACGUGGUGCACGATT against PFKL here?
**A.** Its median seed-adjusted z-score is inactive: 0.

**Q.** With GAACUUGUCUUGACCACCATT against DHX16 as the sequence, how does the median seed-adjusted z-score read?
**A.** Its median seed-adjusted z-score is inactive: 0.102.

**Q.** With CAGCUAACCUGAAGAUGCUTT against E2F7 as the sequence, how does the median seed-adjusted z-score read?
**A.** Its median seed-adjusted z-score is inactive: -0.0972.

**Q.** With GUAUUUCGGGCACAACAAATT against MGST2 as the sequence, how does the median seed-adjusted z-score read?
**A.** Its median seed-adjusted z-score is inactive: 0.387.

**Q.** With GAACCUACAUCAUCAGUAUTT against GJA1 as the sequence, how does the median seed-adjusted z-score read?
**A.** The median seed-adjusted z-score was inactive: 0.348.

**Q.** Which median seed-adjusted z-score does the source give for CUACUCAACAGACAUAAUATT against TRIP13 here?
**A.** The median seed-adjusted z-score was active: 1.

**Q.** With GCUCAGUUAGAUUCCAUCATT against CRYL1 as the sequence, how does the median seed-adjusted z-score read?
**A.** The median seed-adjusted z-score was inactive: 0.0852.

**Q.** For CUGGGAGUCUUGAGCCUAATT against BRD2, which median seed-adjusted z-score is on record?
**A.** Its median seed-adjusted z-score is inactive: -0.242.

**Q.** For GAAUGUUCUGGACAGUGAATT against PDIA6, which median seed-adjusted z-score is on record?
**A.** Its median seed-adjusted z-score is inactive: -0.269.

**Q.** For GCACAGACUCCAGACCCUATT against SHPK, which median seed-adjusted z-score is on record?
**A.** Its median seed-adjusted z-score is inactive: 0.

**Q.** Which median seed-adjusted z-score does the source give for AGGUGAUCGCGGACUAUGATT against EDF1 here?
**A.** Its median seed-adjusted z-score is inactive: 0.0783.

**Q.** Which median seed-adjusted z-score does the source give for AGUCCUUGAACCUACCAAATT against ZNF410 here?
**A.** Its median seed-adjusted z-score is inactive: -0.135.

**Q.** For GCAUCAUCCGAUGGAAAUATT against GJD3, which median seed-adjusted z-score is on record?
**A.** The median seed-adjusted z-score was inactive: -0.251.

**Q.** Which median seed-adjusted z-score does the source give for CGGCCCUGUUUUUAUGAUATT against MTHFD1 here?
**A.** Its median seed-adjusted z-score is inactive: 0.554.

**Q.** Which median seed-adjusted z-score does the source give for AGUCCAACUUAGGUCUAGATT against TGFB3 here?
**A.** Its median seed-adjusted z-score is inactive: -0.354.

**Q.** Which median seed-adjusted z-score does the source give for GGUAUAGGCACAGAACUCATT against SLC30A9 here?
**A.** The median seed-adjusted z-score was inactive: -0.0779.

**Q.** Which median seed-adjusted z-score does the source give for GAACUGUACGCACUCAUGATT against ZAP70 here?
**A.** The median seed-adjusted z-score was inactive: -0.674.

**Q.** With GGCAUACAACUGUAUGGUATT against TLR1 as the sequence, how does the median seed-adjusted z-score read?
**A.** Its median seed-adjusted z-score is inactive: 0.

**Q.** Which median seed-adjusted z-score does the source give for CCCUUACAAUGCAAUUGAATT against ERBB4 here?
**A.** Its median seed-adjusted z-score is inactive: 0.166.

**Q.** For GGAAAAUCGUGAAGUCGAUTT against RAB18, which median seed-adjusted z-score is on record?
**A.** Its median seed-adjusted z-score is inactive: 0.

**Q.** Which median seed-adjusted z-score does the source give for GGAUUUGAUGCACCAUGAATT against LAIR2 here?
**A.** The median seed-adjusted z-score was inactive: -0.481.

**Q.** Which median seed-adjusted z-score does the source give for CAUGGAGUGUAUUACUGCATT against ILDR1 here?
**A.** The median seed-adjusted z-score was inactive: -0.318.

**Q.** Which median seed-adjusted z-score does the source give for GGAAGAUUGUCGCUCCUCATT against TFAP2C here?
**A.** Its median seed-adjusted z-score is active: 1.28.

**Q.** Which median seed-adjusted z-score does the source give for GGACAGGAAGUUUACCUCUTT against TBC1D25 here?
**A.** The median seed-adjusted z-score was inactive: 0.0296.

**Q.** Which median seed-adjusted z-score does the source give for AUCUUGAGCUCUUCAUUUATT against TPT1 here?
**A.** The median seed-adjusted z-score was inactive: 0.236.

**Q.** For GAAGGAGAACAGUCGUGAATT against SLC9A3R1, which median seed-adjusted z-score is on record?
**A.** The median seed-adjusted z-score was inactive: -0.418.

**Q.** Which median seed-adjusted z-score does the source give for GCGGAGACCUAGGAACUUUTT against NKX2-5 here?
**A.** Its median seed-adjusted z-score is inactive: 0.719.

**Q.** With GACUGGAAAGUACAAGGCUTT against ARSA as the sequence, how does the median seed-adjusted z-score read?
**A.** The median seed-adjusted z-score was inactive: 0.0938.

**Q.** With GCCUUUGACUUGGUGAAUATT against INPP5A as the sequence, how does the median seed-adjusted z-score read?
**A.** Its median seed-adjusted z-score is inactive: -0.00941.

**Q.** With CGCUGUCUCGGGAGAGAAATT against SFRS3 as the sequence, how does the median seed-adjusted z-score read?
**A.** Its median seed-adjusted z-score is active: 2.74.

**Q.** With CAAUAGAAUCGUUCAAGAATT against CLDN1 as the sequence, how does the median seed-adjusted z-score read?
**A.** The median seed-adjusted z-score was inactive: 0.307.

**Q.** With AGGUGCUAGUAGGAAGCUATT against EIF6 as the sequence, how does the median seed-adjusted z-score read?
**A.** Its median seed-adjusted z-score is inactive: 0.

**Q.** With CAAGAAUUCCGAUUUCCAATT against GNGT2 as the sequence, how does the median seed-adjusted z-score read?
**A.** The median seed-adjusted z-score was inactive: -0.289.

**Q.** Which median seed-adjusted z-score does the source give for GAGCCUUAUGUGGAACAUATT against USP48 here?
**A.** Its median seed-adjusted z-score is inactive: 0.397.

**Q.** For GGGAGAAUGCUAUUAAUCATT against ZNF425, which median seed-adjusted z-score is on record?
**A.** Its median seed-adjusted z-score is inactive: 0.0841.

**Q.** Which median seed-adjusted z-score does the source give for CGCUGCGGCUGAUCCAUAUTT against TRPM5 here?
**A.** Its median seed-adjusted z-score is inactive: -0.0565.

**Q.** For GAGCGAAGAUGUCCGAAAATT against MIPEP, which median seed-adjusted z-score is on record?
**A.** The median seed-adjusted z-score was inactive: -0.169.

**Q.** With AAAGGUCGAUUGUAAUGGATT against PROK2 as the sequence, how does the median seed-adjusted z-score read?
**A.** The median seed-adjusted z-score was inactive: -0.00826.

**Q.** For GGAUCUCAAUGGAGGAUUUTT against PCTK2, which median seed-adjusted z-score is on record?
**A.** Its median seed-adjusted z-score is inactive: -0.497.

**Q.** Which median seed-adjusted z-score does the source give for GACCUUUAGUCGUCGGUAUTT against ZNF546 here?
**A.** The median seed-adjusted z-score was inactive: 0.497.

**Q.** For GCUUGCCCGAGUUUCCUUUTT against KLF15, which median seed-adjusted z-score is on record?
**A.** Its median seed-adjusted z-score is inactive: -0.45.

**Q.** For GCCCUCCUGUGCAACCAUATT against SPRR2G, which median seed-adjusted z-score is on record?
**A.** Its median seed-adjusted z-score is inactive: 0.358.

**Q.** With GCAUCCGCGUUGUGGAAAATT against MYBPC2 as the sequence, how does the median seed-adjusted z-score read?
**A.** The median seed-adjusted z-score was inactive: 0.18.

**Q.** For CCUUUAUCCCGCCUCCCUATT against HLF, which median seed-adjusted z-score is on record?
**A.** The median seed-adjusted z-score was inactive: 0.0548.

**Q.** Which median seed-adjusted z-score does the source give for GGACACGAACAAAACCUUATT against RASD1 here?
**A.** Its median seed-adjusted z-score is inactive: 0.674.

**Q.** For GACUUAUGUGGAAUCUAUATT against ADAL, which median seed-adjusted z-score is on record?
**A.** Its median seed-adjusted z-score is inactive: 0.145.

**Q.** For CUCGUGUCCCAAAACCAUATT against SNTA1, which median seed-adjusted z-score is on record?
**A.** The median seed-adjusted z-score was inactive: 0.212.

**Q.** Which median seed-adjusted z-score does the source give for GAAACAUCCGUGAAAGAGATT against RABL4 here?
**A.** Its median seed-adjusted z-score is inactive: -0.154.

**Q.** Which median seed-adjusted z-score does the source give for CCUUAUUCAUCCUCUAGUATT against ATN1 here?
**A.** Its median seed-adjusted z-score is inactive: -0.357.

**Q.** Which median seed-adjusted z-score does the source give for GGUAUUGUUUUAGCCCUGATT against TPBG here?
**A.** The median seed-adjusted z-score was inactive: -0.128.

**Q.** With GCAAGUUAAAGAAUAUCGATT against KIF20B as the sequence, how does the median seed-adjusted z-score read?
**A.** The median seed-adjusted z-score was inactive: 0.

**Q.** Which median seed-adjusted z-score does the source give for GUAAAAUUGUGAUGGAACUTT against OTUD4 here?
**A.** Its median seed-adjusted z-score is inactive: 0.167.

**Q.** For GAAUUACGGAGUCAACAAATT against PITRM1, which median seed-adjusted z-score is on record?
**A.** Its median seed-adjusted z-score is inactive: -0.0959.

**Q.** Which median seed-adjusted z-score does the source give for AGACCAUAACUACUCACUATT against KDELR3 here?
**A.** The median seed-adjusted z-score was inactive: 0.476.

**Q.** For CCACGUAACUAUCAUAAGATT against TLL1, which median seed-adjusted z-score is on record?
**A.** Its median seed-adjusted z-score is inactive: 0.396.

**Q.** With CAUUGAAACACCUCACAAATT against CCNE2 as the sequence, how does the median seed-adjusted z-score read?
**A.** Its median seed-adjusted z-score is inactive: 0.801.

**Q.** With GUAUUGGGACAGUUCUAUUTT against NLN as the sequence, how does the median seed-adjusted z-score read?
**A.** Its median seed-adjusted z-score is inactive: 0.248.

**Q.** Which median seed-adjusted z-score does the source give for GCUUCAGACAUGCCUGAAATT against HM13 here?
**A.** The median seed-adjusted z-score was inactive: 0.134.

**Q.** For CACCAGCUAUGAACGAGAATT against THOC2, which median seed-adjusted z-score is on record?
**A.** The median seed-adjusted z-score was active: -1.22.

**Q.** Which median seed-adjusted z-score does the source give for CACCGAGAUUUCUACAACATT against AMPD2 here?
**A.** The median seed-adjusted z-score was inactive: 0.214.

**Q.** Which median seed-adjusted z-score does the source give for CACUGAUCUUCUCACUCAATT against PAH here?
**A.** The median seed-adjusted z-score was inactive: 0.487.

**Q.** Which median seed-adjusted z-score does the source give for CCAAGAUCCCAAUCAGUCUTT against OXSR1 here?
**A.** Its median seed-adjusted z-score is inactive: -0.0682.

**Q.** With CUCUUGCCGGGACAACAAATT against RXRB as the sequence, how does the median seed-adjusted z-score read?
**A.** The median seed-adjusted z-score was inactive: 0.147.

**Q.** For CCUUAUCGCUAGAUGUCAATT against GRM3, which median seed-adjusted z-score is on record?
**A.** The median seed-adjusted z-score was inactive: -0.401.

**Q.** With GUUUCUGAUUUAAUAGACATT against ZNF781 as the sequence, how does the median seed-adjusted z-score read?
**A.** The median seed-adjusted z-score was inactive: 0.0307.

**Q.** Which median seed-adjusted z-score does the source give for CGAAUGCUGAGGCUACAAATT against SLC9A5 here?
**A.** The median seed-adjusted z-score was inactive: -0.545.

**Q.** For GGACAGUGCUGCCCUUUGATT against CYP11B1, which median seed-adjusted z-score is on record?
**A.** Its median seed-adjusted z-score is inactive: -0.199.

**Q.** Which median seed-adjusted z-score does the source give for GAGCCGUUGGACUUCCUUUTT against GPR162 here?
**A.** The median seed-adjusted z-score was inactive: 0.195.

**Q.** With GGACGGCAAAGUACGUAAATT against MAK10 as the sequence, how does the median seed-adjusted z-score read?
**A.** The median seed-adjusted z-score was inactive: 0.124.
